Experimental data: article PMC8556256
These are yes or no findings as the source states them, for the method shown. Binding seen in cells or lysates may run through a third protein. Binding calls can cover weak binding; strength is not graded here. Sequences can lack the tags named with a protein.

Molecular target: Flag-tagged WT PITX2 (mouse)
Test: co-IP; 293T cells co-transfected with PITX2-Flag (WT or R115L) and NRF2-HA or YAP1-HA; lysis in 50 mM Tris-HCl pH 7.5, 150 mM NaCl, 1% Nonidet P-40, 0.5% sodium deoxycholate; Flag immunoprecipitation at 4 °C overnight, six washes, blot with anti-HA; relative binding capacity = normalized IP-HA intensity / normalized IP-Flag intensity (ImageJ)

B1: HA-tagged NRF2 (protein, UniProt Q60795 1-597)
chain: MMDLELPPPGLQSQQDMDLIDILWRQDIDLGVSREVFDFSQRQKDYELEKQKKLEKERQEQLQKEQEKAFFAQFQLDEETGEFLPIQPAQHIQTDTSGSASYSQVAHIPKQDALYFEDCMQLLAETFPFVDDHESLALDIPSHAESSVFTAPHQAQSLNSSLEAAMTDLSSIEQDMEQVWQELFSIPELQCLNTENKQLADTTAVPSPEATLTEMDSNYHFYSSISSLEKEVGNCGPHFLHGFEDSFSSILSTDDASQLTSLDSNPTLNTDFGDEFYSAFIAEPSDGGSMPSSAAISQSLSELLDGTIEGCDLSLCKAFNPKHAEGTMEFNDSDSGISLNTSPSRASPEHSVESSIYGDPPPGFSDSEMEELDSAPGSVKQNGPKAQPAHSPGDTVQPLSPAQGHSAPMRESQCENTTKKEVPVSPGHQKAPFTKDKHSSRLEAHLTRDELRAKALHIPFPVEKIINLPVDDFNEMMSKEQFNEAQLALIRDIRRRGKNKVAAQNCRKRKLENIVELEQDLGHLKDEREKLLREKGENDRNLHLLKRRLSTLYLEVFSMLRDEDGKPYSPSEYSLQQTRDGNVFLVPKSKKPDTKKN
binding: binds
